# In patent US4165312A, “Phosphorylated nonapeptides, processes for the preparation thereof and pharmaceutical compositions containing them” (Hoffmann-La Roche Inc., priority 1977, dated 1979):
# At least one peptide structure holds a part that was inferred or is arguable (an end, a ring closure or a residue).
# Test system: rats
# Assay: rising test in rats (vigilant state) after intravenous injection
# Type: in vivo, rat
# Details: i.v., dose 30 nMol/kg, counted 90 min after injection for 3 hours, Test versus Control p <0.001
smiles,measurement,value
CC(C)OP(=O)(OC[C@H](NC(=O)[C@H](C)NC(=O)[C@H](CC(=O)O)NC(=O)CNC(=O)CNC(=O)[C@H](C)NC(=O)[C@@H](N)Cc1c[nH]c2ccccc12)C(=O)NCC(=O)N[C@@H](CCC(=O)O)C(=O)O)OC(C)C,"T (%): frequency of rising of test animals, control animals set at 100%",50%
